PubChem BioAssay AID1259272 | Sanger Institute | 2017

Purpose: 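Kinome-wide siRNA search for genes whose silencing boosts targeted drug effects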 (primary screen)
Cell system: SW1116 human colorectal cancer cells
Reagent: siRNA pool against human genes
Treatment: anchor drugs BYL719 (1 µM), cetuximab (5 µg/ml) or trametinib (10 nM), or DMSO vehicle; exposure length not given
Measurement: 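Cell survival as a fraction of wells given a non-targeting pool, averaged over replicates; robust z-score without drug; synergy score for each of BYL719, cetuximab and trametinib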
Scale: viability z-score, no drug: higher = more cells remaining; strongly negative means essential gene
Call rule: 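a robust z-score under -3 with siRNA and no drug marks the gene essential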
Meaning of the calls: active = essential (knock-down alone); inactive = no change
This is an unselected part of 794 deposited reagents. Of all reagents, 7 (0.88%) are marked active. 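Essential calls reflect knock-down without drug only, not synergy with drugs; drug exposure length not given.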 Not all columns of the deposit are shown. Not stated in the record: the amount of reagent, the time to read-out.

gene symbol | viability z-score, no drug | outcome
PKDCC (protein kinase domain containing, cytoplasmic) | 0.842 | inactive
STK38L (serine/threonine kinase 38 like) | 0.715 | inactive
GUK1 (guanylate kinase 1) | 0.527 | inactive
GSK3B (glycogen synthase kinase 3 beta) | -0.508 | inactive
ATP23 | 0.842 | inactive
DGKA (diacylglycerol kinase alpha) | 0.26 | inactive
SMAD2 (SMAD family member 2) | -2.04 | inactive
MAP3K8 (mitogen-activated protein kinase kinase kinase 8) | -1.02 | inactive
NUP107 (nucleoporin 107) | -1.16 | inactive
RTN4 (reticulon 4) | -0.812 | inactive
PAK6 (p21 (RAC1) activated kinase 6) | 0.842 | inactive
CKS2 (CDC28 protein kinase regulatory subunit 2) | 0.842 | inactive
PRKCI (protein kinase C iota) | 0.842 | inactive
CREBBP (CREB binding lysine acetyltransferase) | -0.433 | inactive
PHKG2 (phosphorylase kinase catalytic subunit gamma 2) | -0.0167 | inactive
PHKA2 (phosphorylase kinase regulatory subunit alpha 2) | -1.83 | inactive
SIK3 (SIK family kinase 3) | 0.426 | inactive
CSNK2A2 (casein kinase 2 alpha 2) | 0.0794 | inactive
PIM1 (Pim-1 proto-oncogene, serine/threonine kinase) | 0.842 | inactive
DYRK4 (dual specificity tyrosine phosphorylation regulated kinase 4) | -0.0074 | inactive

Already shown: entries from further up.
gene symbol | viability z-score, no drug | outcome
STK38L (serine/threonine kinase 38 like) | 0.715 | inactive
GUK1 (guanylate kinase 1) | 0.527 | inactive
